Assay results taken from article PMC8901925.
No constants are given. Whether binding was seen depends on the method and setting. In cells and extracts the contact can be indirect. Some results given as binding are weak or reduced against the parent protein; the word gives no strength. For part of these data: Tags and fused reporters may be left off the sequences shown.

Protein sequences, listed by entry. Tags and fused reporters are not part of them.
UniProt P35579: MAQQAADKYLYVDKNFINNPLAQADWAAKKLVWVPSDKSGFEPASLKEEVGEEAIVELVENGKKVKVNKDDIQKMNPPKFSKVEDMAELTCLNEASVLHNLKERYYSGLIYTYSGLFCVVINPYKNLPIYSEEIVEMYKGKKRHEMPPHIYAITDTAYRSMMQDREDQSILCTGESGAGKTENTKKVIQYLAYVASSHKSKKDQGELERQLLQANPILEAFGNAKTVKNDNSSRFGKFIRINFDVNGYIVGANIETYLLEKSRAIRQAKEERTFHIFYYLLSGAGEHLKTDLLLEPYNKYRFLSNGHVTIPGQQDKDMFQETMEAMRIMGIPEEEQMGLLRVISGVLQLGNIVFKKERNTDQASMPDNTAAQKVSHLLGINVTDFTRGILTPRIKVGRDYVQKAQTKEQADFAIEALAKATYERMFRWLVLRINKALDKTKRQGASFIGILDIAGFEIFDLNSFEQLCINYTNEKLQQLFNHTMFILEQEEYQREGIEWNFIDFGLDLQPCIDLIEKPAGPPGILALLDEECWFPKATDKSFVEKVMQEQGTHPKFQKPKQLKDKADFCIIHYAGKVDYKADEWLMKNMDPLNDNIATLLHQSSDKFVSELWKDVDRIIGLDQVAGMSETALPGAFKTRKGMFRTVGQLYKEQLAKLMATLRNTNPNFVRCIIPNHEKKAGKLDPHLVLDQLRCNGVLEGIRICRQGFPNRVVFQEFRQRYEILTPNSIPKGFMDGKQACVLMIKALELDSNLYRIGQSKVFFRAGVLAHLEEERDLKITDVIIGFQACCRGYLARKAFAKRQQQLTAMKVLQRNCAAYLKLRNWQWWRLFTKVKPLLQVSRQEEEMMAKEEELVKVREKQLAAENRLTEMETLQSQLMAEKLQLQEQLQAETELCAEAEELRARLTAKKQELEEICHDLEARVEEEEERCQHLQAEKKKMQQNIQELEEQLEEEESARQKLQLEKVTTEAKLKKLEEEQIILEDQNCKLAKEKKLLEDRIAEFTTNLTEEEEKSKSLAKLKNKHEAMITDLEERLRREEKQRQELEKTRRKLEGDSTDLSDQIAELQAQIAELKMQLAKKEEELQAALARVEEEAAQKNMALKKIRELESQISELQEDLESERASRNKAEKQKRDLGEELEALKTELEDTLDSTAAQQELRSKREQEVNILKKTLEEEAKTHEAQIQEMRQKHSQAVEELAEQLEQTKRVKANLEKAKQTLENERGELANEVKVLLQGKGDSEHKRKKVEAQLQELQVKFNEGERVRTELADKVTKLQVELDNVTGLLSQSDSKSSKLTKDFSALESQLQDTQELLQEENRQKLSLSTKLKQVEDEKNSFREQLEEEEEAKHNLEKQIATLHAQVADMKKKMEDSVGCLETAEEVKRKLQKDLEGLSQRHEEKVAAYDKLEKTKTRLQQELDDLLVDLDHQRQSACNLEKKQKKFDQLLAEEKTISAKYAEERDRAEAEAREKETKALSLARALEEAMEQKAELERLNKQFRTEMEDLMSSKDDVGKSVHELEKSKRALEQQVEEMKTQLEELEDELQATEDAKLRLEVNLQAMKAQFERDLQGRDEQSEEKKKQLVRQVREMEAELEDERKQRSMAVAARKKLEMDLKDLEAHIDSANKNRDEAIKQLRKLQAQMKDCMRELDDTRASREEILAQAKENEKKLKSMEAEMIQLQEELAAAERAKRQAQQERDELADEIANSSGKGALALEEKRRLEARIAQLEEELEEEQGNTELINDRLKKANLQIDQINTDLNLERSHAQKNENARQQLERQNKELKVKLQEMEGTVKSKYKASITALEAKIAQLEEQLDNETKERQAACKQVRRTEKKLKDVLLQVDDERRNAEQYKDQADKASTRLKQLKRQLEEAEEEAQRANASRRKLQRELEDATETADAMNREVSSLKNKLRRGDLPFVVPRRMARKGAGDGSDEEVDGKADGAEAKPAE
UniProt P49841: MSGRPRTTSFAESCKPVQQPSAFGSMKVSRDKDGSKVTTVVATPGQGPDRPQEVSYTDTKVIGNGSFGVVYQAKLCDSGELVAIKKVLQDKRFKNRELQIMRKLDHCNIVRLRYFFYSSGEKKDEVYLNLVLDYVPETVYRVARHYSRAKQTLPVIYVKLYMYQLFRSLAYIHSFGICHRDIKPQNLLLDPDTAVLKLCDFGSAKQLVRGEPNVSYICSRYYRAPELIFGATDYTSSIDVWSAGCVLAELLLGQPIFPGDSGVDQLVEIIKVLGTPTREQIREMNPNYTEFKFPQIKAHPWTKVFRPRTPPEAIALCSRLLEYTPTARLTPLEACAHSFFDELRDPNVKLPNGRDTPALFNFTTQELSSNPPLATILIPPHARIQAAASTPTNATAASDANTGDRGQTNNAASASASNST

How the values were obtained:
[1] = target: T1, Glycoprotein prostaglandin D2 synthase (PTGDS) (human (endogenous in LY1 and LY3)) (UniProt P41222); test: co-IP; endogenous proteins of LY1 and LY3 cells, Pierce Co-Immunoprecipitation Kit with antibodies to PTGDS, MYH9 or GSK3-β, western blotting
T1 sequence (chain, N-glycosylation at Asn51 and Asn78): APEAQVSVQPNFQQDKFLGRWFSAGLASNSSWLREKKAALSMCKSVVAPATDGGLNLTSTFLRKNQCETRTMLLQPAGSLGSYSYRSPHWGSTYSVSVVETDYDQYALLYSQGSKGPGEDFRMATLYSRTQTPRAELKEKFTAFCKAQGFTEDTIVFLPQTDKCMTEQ

[2] = target: MYH9 (human (endogenous in LY1 and LY3)) (UniProt P35579); test: as above

| binding [1] | binding [2] | Substance |
| --- | --- | --- |
| no binding | binds | GSK3-β (from UniProt P49841 1-420) |
| binds |  | MYH9 (from UniProt P35579 1-1960) |
